Measured values as given in the supplement of paper PMC11150407.
Values joined by “and” are separate entries in the source; they are usually repeats but may differ in a detail not shown here. Equal values may be shown once. In all, about 2,100 compounds went through this assay and about 180 (8.6%) showed an effect of 50% or more. The list shows a part of the results.

What follows are compounds tested on MOLM1 and UCSD/AML1 (averaged) (assay: cell viability relative to DMSO control (POC); higher = less growth inhibition). Settings: 1 µM; 72 h.
Description: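 Primary viability screen in the 3q26 EVI1-high AML cell lines MOLM1 and UCSD/AML1 (1.5e3 cells/well, 384-well), compounds at 1 uM for 72 h. ATP CellTiter-Glo read-out given as percent of viable cells over DMSO control (POC), averaged over duplicates. DMSO was the negative control and 5 uM etoposide the positive control. This mapping covers the MicroSource Spectrum and Selleck anticancer libraries (drug names).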

| Structure (SMILES) | cell viability |
| --- | --- |
| C[C@]12CC[C@H](O)C[C@H]1CC[C@@H]1[C@@H]2CC[C@]2(C)[C@@H](C3=CC(=O)OC3)[C@@H](O)C[C@]12O | 99.6% |
| Cc1ccc(/N=C/N(C)/C=N/c2ccc(C)cc2C)c(C)c1 | 51.7% |
| O=c1c2ccccc2[se]n1-c1ccccc1 | 97.5% |
| C[C@]12CC[C@H]3[C@@H](CCC4=CC(=O)CC[C@@]43C)[C@@H]1CC[C@@H]2O | 103% |
| O=c1ccc2cc(O[C@@H]3O[C@H](CO)[C@@H](O)[C@H](O)[C@H]3O)c(O)cc2o1 | 100% and 101% |
| NCC(O)c1ccc(O)cc1 (centres undefined) | 104% |
| O=C(NC(=O)c1ccccc1Cl)Nc1ccc(OC(F)(F)F)cc1 | 113% |
| C[C@]12CCC(=O)C(O)=C1CC[C@@H]1[C@@H]2CC[C@]2(C)C(=O)CC[C@@H]12 [Formestane] | 96.3% |
| C[C@]12CCC(=O)C(O)=C1CC[C@@H]1[C@@H]2CC[C@]2(C)C(=O)CC[C@@H]12 | 111% |
| CNC(Cc1c[nH]c2ccccc12)C(=O)O (centres undefined) | 102% |
| CNC(C)(C)Cc1ccccc1 | 116% |
| CC(C)C[C@H]1C(=O)N2CCC[C@H]2[C@]2(O)O[C@](NC(=O)[C@@H]3C=C4c5cccc6[nH]c(Br)c(c56)C[C@H]4N(C)C3)(C(C)C)C(=O)N12 | 108% |
| CN1[C@@H]2CC[C@H]1C[C@@H](OC(=O)C(CO)c1ccccc1)C2 (some centres undefined) | 104% |
| O=c1c(O)c(-c2ccc(O)c(O)c2)oc2c(O)c(O)cc(O)c12 | 103% |
| CN1CCc2cc3c(cc2C1O)OCO3 (centres undefined) | 102% |
| COc1ccc(C(=O)O)cc1OC | 99.7% |
| CC1(C)C2CC(=O)[C@]3(C)C(CC[C@@]4(C)[C@H](c5ccoc5)OC(=O)[C@H]5O[C@]543)[C@@]2(C)C(=O)C[C@H]1O (some centres undefined) | 87.6% |
| NCC(=O)c1ccccc1 | 130% |
| CNC(=O)Oc1ccc2c(c1)[C@]1(C)CCN(C)[C@@H]1N2C | 106% |
| CN(C)C(=O)Oc1cccc([N+](C)(C)C)c1 | 93.5% |

4 entries drawn at random from the list so far:

| Structure (SMILES) | cell viability |
| --- | --- |
| C[C@]12CC[C@H]3[C@@H](CCC4=CC(=O)CC[C@@]43C)[C@@H]1CC[C@@H]2O | 103% |
| COc1ccc(C(=O)O)cc1OC | 99.7% |
| CNC(C)(C)Cc1ccccc1 | 116% |
| Cc1ccc(/N=C/N(C)/C=N/c2ccc(C)cc2C)c(C)c1 | 51.7% |

The results go on.

| Structure (SMILES) | cell viability |
| --- | --- |
| CN1[C@H]2C[C@H](OC(=O)[C@H](CO)c3ccccc3)C[C@@H]1[C@@H](O)C2 | 103% |
| COc1ccc(C(CN(C)C)C2(O)CCCCC2)cc1 (centres undefined) | 115% |
| C#CCN(C)[C@H](C)Cc1ccccc1 | 84.3% |
| C[C@@H]1O[C@@H](O[C@@H]2C=C3CC[C@@H]4[C@H](CC[C@]5(C)[C@@H](c6ccc(=O)oc6)CC[C@]45O)[C@@]3(C)CC2)[C@H](O)[C@H](O)[C@H]1O | 2.01% |
| CN(C)C(=O)Oc1ccc[n+](C)c1 | 110% |
| O=c1[nH]c2ccccc2n1C1CCN(CCCC(c2ccc(F)cc2)c2ccc(F)cc2)CC1 | 94.7% |
| CC(=O)[O][Hg][c]1ccccc1 | 1.17% |
| CC(=O)Nc1cc([As](=O)(O)O)ccc1O | 95.1% |
| Cc1cc2c(C(C)C)c(O)c(O)c(C=O)c2c(O)c1-c1c(C)cc2c(C(C)C)c(O)c(O)c(C=O)c2c1O | 85.6% |
| CC1=C2C[C@H]3[C@@H](CC=C4C[C@@H](O)CC[C@@]43C)[C@@H]2CC[C@]12O[C@@H]1C[C@H](C)CN[C@H]1[C@H]2C [Cyclopamine] | 91.3% |
| COc1cccc2c1cc([N+](=O)[O-])c1c(C(=O)O)cc3c(c12)OCO3 | 84.4% |
| COP(=S)(OC)Oc1cc(Cl)c(Cl)cc1Cl | 122% |
| COc1cc2occc2c2oc(=O)ccc12 | 110% |
| Nc1ccc([As](=O)(O)O)cc1 | 94.1% |
| COC1=C[C@]23CCCN2CCc2cc4c(cc2[C@@H]3[C@@H]1O)OCO4 | 98.9% |
| NCCCNCCSP(=O)(O)O | 101% |
| c1ccc2c(c1)[nH]c1cnccc12 | 92.1% |
| C[C@@H]1CC[C@]2(NC1)O[C@H]1C[C@H]3[C@@H]4CC=C5C[C@@H](O)CC[C@]5(C)[C@H]4CC[C@]3(C)[C@H]1[C@@H]2C | 94.1% |
| COc1ccc(OC)c(C(O)C(C)N)c1 (centres undefined) | 99.8% |
| CCC(=O)O[C@H]1CC[C@H]2[C@@H]3CCC4=CC(=O)CC[C@]4(C)[C@H]3CC[C@]12C | 97.6% |

| Structure (SMILES) | cell viability |
| --- | --- |
| C[C@H]1CC[C@]2(NC1)O[C@H]1C[C@H]3[C@@H]4CC[C@H]5C[C@@H](O[C@@H]6O[C@H](CO)[C@H](O[C@@H]7O[C@H](CO)[C@@H](O)[C@H](O[C@@H]8OC[C@@H](O)[C@H](O)[C@H]8O)[C@H]7O[C@@H]7O[C@H](CO)[C@@H](O)[C@H](O)[C@H]7O)[C@H](O)[C@H]6O)CC[C@]5(C)[C@H]4CC[C@]3(C)[C@H]1[C@@H]2C | 65.2% |
| Cc1c(O)c(O)cc2c1CC=C1[C@@]2(C)CC[C@@]2(C)[C@@H]3C[C@](C)(C(=O)O)CC[C@]3(C)CC[C@]12C | 11.5% |
| O=C1CCO1 | 91% |
| CC(=O)O[C@@H]1C[C@H]2C(C)(C)C(=O)C=C[C@]2(C)[C@H]2CC[C@]3(C)C(=CC(=O)O[C@H]3c3ccoc3)[C@@]21C | 75.1% |
| N[C@@H]1C[C@H]1c1ccccc1.N[C@H]1C[C@@H]1c1ccccc1 | 93.1% |
| COc1cc(OC)c(OC)cc1C=O | 98.1% |
| C[N+]1(C)CCCC(OC(=O)C(O)(c2ccccc2)c2ccccc2)C1 (centres undefined) | 98.3% |
| CN1C2CCC1CC(O)C2 (centres undefined) | 109% |
| CCCC(C)(COC(N)=O)COC(=O)NC(C)C (centres undefined) | 112% |
| COC(C)(C)CCC[C@H](C)C/C=C/C(C)=C/C(=O)OC(C)C | 102% |
| C[C@@]12C(=O)OC(=O)[C@]1(C)[C@H]1CC[C@@H]2O1 | 101% |
| Cl[C@H]1[C@H](Cl)[C@@H](Cl)[C@@H](Cl)[C@H](Cl)[C@H]1Cl | 106% |
| C=C1C[C@@H]2[C@H](CC[C@]3(C)C(=O)CC[C@@H]23)[C@@]2(C)C=CC(=O)C=C12 [Exemestane] | 100% |
| CC(C)=CCC[C@]1(C)C=Cc2c(O)c3c(c(CC=C(C)C)c2O1)O[C@]12C(=C[C@@H]4C[C@H]1C(C)(C)O[C@@]2(C/C=C(/C)C(N)=O)C4=O)C3=O | 13.2% |
| CC1CC(Cl)CCC1C(=O)OC(C)(C)C (centres undefined) | 102% |
| COc1cc([C@@H]2c3cc4c(cc3[C@H](OC(C)=O)[C@H]3COC(=O)[C@@H]23)OCO4)cc(OC)c1OC | 34.9% |
| O=P1(N(CCCl)CCCl)NCCCO1 (centres undefined) | 96.6% |
| O=P1(N(CCCl)CCCl)NCCCO1 (centres undefined) [Cyclophosphamide monohydrate] | 102% |
| O=P1(N(CCCl)CCCl)NCCCO1 (centres undefined) [Clafen (Cyclophosphamide)] | 99.4% |
